Data taken from PubChem BioAssay AID1159506, deposited by NCATS (2015).

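Luminescence from an EWS-FLI1 target-promoter (NR0B1) reporter, set against a CMV-promoter reporter, two days after silencing single genes in TC32 Ewing sarcoma cells.
Each siRNA was applied at 20 nM.
A z-score of the log NR0B1-over-CMV signal, less the median of siRNAs with the same seed; more negative means a stronger specific loss of the NR0B1 reporter.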

This is part of the screen; most of the strongest results are not listed here.
Sequences are the guide (antisense) strand, without overhang.

siRNA	target gene	seed-corrected z-score
UUUAAGGUCAGGUAACUUG	TOMM20	0.01221
UGAGUUCCUUGUUUAGCCU	LOC401410	-0.1974
UCAGUGAAAAGUUGACUCC	AUNIP	1.941
UCACCAGUUCGUAUCCUCC	BTBD7	-0.06348
UAGUUGUCUUUGCAAAAGC	ASPA	-1.846
AUAGAGACUGGUGAUGCCC	LPIN3	-0.7719
UGAACUGUUCUUUAAAACC	TAAR6	-0.6614
UUUCAGAUGGGCAUGAUAC	ZMAT4	0.4288
AACUAUACCAGGUUGCACC	QRICH2	1.066
UCGCUUGUCAAACACCUCC	SMPD3	1.066
UCAUUGGUCUUGUUACUCC	F13A1	0.04608
UGAUAUUCCGUUCUUGUCU	HMP19	0.2644
UUCCAUUACUUUUCAAGCU	SPINK7	0.8655
UUUGCUGUCAGGGCGAACC	FAM212B	1.065
UCAGUCGACGGAAGUAUCG	METTL13	0.1055
UUGUUGAACAGGUCUCUCC	PACS2	1.068
UGCAUUUCCUGAGAUGAGG	LOC729609	-1.201
AAAAUAGCCUGGGACAAGC	CD300C	1.138
UUAUUGUAUGGUAACAUGG	MXD1	0.4708
UCUGCUGUGAAUUCAUCAC	PALM	-0.108
UUCUUGUAGGUAUCGCUGG	CAPN2	0.5846
AAUUCUAGCACCUUAAUUG	RFWD2P1	-0.214
UAUUCUACAAGAUCUCUAC	ATL2	0.9052
UUUCGGUCUAGCAAACAAG	AUNIP	0.5835
AUCAGGACGAAUAAGGGCC	LEPROT	0.4411
UGUUUUCUGACAACUUAAC	GAR1	0.844
UUCGGUAUAUCAGAGCUUG	HIVEP1	-0.1306
UUUCAGUCUAGAGUGUGGG	MEF2D	0.09923
UCUUCUUCCUCAACAGCCC	FKBP8	-0.2525
UUAGCUUGCUGUUUCCUAG	TAS2R10	2.813
ACAUGUGAUAGAGAGCUGG	RRP9	1.531
UCCAUGUUGAGAGUGACCG	DVL3	-0.8826
UGCUUUAACUCACUGUUUC	PTGDR2	-0.5257
AUUGUGAUGAGAAGGCACC	MAGEB5	0.7599
UACCAUUUGAAAGGCUUGC	GALNT2	-0.5536
UGGGAUUCGAAACACGUGC	NLRP3	-0.05346
UUCCGACAUAGUAAUCUGG	IPO7	-0.445
UCACUUGCAAGUAUUGGGC	KCNA2	-0.9165
UAAGGGCUAAGGAUUCCAU	LINC00636	1.642

5 of the entries, repeated:

- UACCAUUUGAAAGGCUUGC against GALNT2 | seed-corrected z-score -0.5536
- UGAACUGUUCUUUAAAACC against TAAR6 | seed-corrected z-score -0.6614
- UCGCUUGUCAAACACCUCC against SMPD3 | seed-corrected z-score 1.066
- UCUUCUUCCUCAACAGCCC against FKBP8 | seed-corrected z-score -0.2525
- UCCAUGUUGAGAGUGACCG against DVL3 | seed-corrected z-score -0.8826